{"source": "PubChem BioAssay AID1224830 | NIAID, 2016", "aim": "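Regulators of TLR4 signalling towards TNF-alpha in macrophage-like cells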 (primary screen)", "system": "human THP-1 monocytic leukaemia cells, TNF dual-luciferase reporter clone, PMA-differentiated to macrophage-like cells", "reagents": "siRNA pool against human genes, 50 nM", "time to read-out": "LPS for 4 h, given about 3 days after siRNA transfection", "conditions": "bacterial LPS (TLR4 ligand), 10 ng/ml", "detection": "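TNF firefly reporter luminescence divided by renilla, normalised to the plate median, then turned into a robust z-score for each replicate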", "direction": "TNF reporter robust z-score: higher = stronger TNF reporter response to LPS", "hit rule": "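a well is active when its z-score exceeds 2.8 or falls below -1.5; control wells carry no call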", "note": "This is a random part of about 18,000 deposited reagents. Of all reagents, about 2,900 (16%) are marked active. 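Calls are made per well; low scores hint the gene aids the LPS response, high scores that it dampens it.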 Repeated entries: four replicate wells of each siRNA pool. Reagent sequences are not shown."}
{"Target gene": "ZNF598 (zinc finger protein 598, E3 ubiquitin ligase)", "TNF reporter robust z-score": -1.18, "Outcome": "inactive"}
{"Target gene": "ZNF598 (zinc finger protein 598, E3 ubiquitin ligase)", "TNF reporter robust z-score": -0.96, "Outcome": "inactive"}
{"Target gene": "ZNF598 (zinc finger protein 598, E3 ubiquitin ligase)", "TNF reporter robust z-score": -1.21, "Outcome": "inactive"}
{"Target gene": "ZNF598 (zinc finger protein 598, E3 ubiquitin ligase)", "TNF reporter robust z-score": -0.64, "Outcome": "inactive"}
{"Target gene": "CLK4 (CDC like kinase 4)", "TNF reporter robust z-score": 3.53, "Outcome": "active"}
{"Target gene": "CLK4 (CDC like kinase 4)", "TNF reporter robust z-score": -0.24, "Outcome": "inactive"}
{"Target gene": "CLK4 (CDC like kinase 4)", "TNF reporter robust z-score": -0.34, "Outcome": "inactive"}
{"Target gene": "CLK4 (CDC like kinase 4)", "TNF reporter robust z-score": 0.52, "Outcome": "inactive"}
{"Target gene": "PRKAR1B (protein kinase cAMP-dependent type I regulatory subunit beta)", "TNF reporter robust z-score": 1.38, "Outcome": "inactive"}
{"Target gene": "PRKAR1B (protein kinase cAMP-dependent type I regulatory subunit beta)", "TNF reporter robust z-score": 1.67, "Outcome": "inactive"}
{"Target gene": "PRKAR1B (protein kinase cAMP-dependent type I regulatory subunit beta)", "TNF reporter robust z-score": 1.6, "Outcome": "inactive"}
{"Target gene": "PRKAR1B (protein kinase cAMP-dependent type I regulatory subunit beta)", "TNF reporter robust z-score": 1.55, "Outcome": "inactive"}
{"Target gene": "ZNF771 (zinc finger protein 771)", "TNF reporter robust z-score": 0.37, "Outcome": "inactive"}
{"Target gene": "ZNF771 (zinc finger protein 771)", "TNF reporter robust z-score": -0.68, "Outcome": "inactive"}
{"Target gene": "ZNF771 (zinc finger protein 771)", "TNF reporter robust z-score": -0.3, "Outcome": "inactive"}
{"Target gene": "ZNF771 (zinc finger protein 771)", "TNF reporter robust z-score": -0.04, "Outcome": "inactive"}
{"Target gene": "RGS19 (regulator of G protein signaling 19)", "TNF reporter robust z-score": -0.63, "Outcome": "inactive"}
{"Target gene": "RGS19 (regulator of G protein signaling 19)", "TNF reporter robust z-score": -0.4, "Outcome": "inactive"}
{"Target gene": "RGS19 (regulator of G protein signaling 19)", "TNF reporter robust z-score": -0.88, "Outcome": "inactive"}
{"Target gene": "RGS19 (regulator of G protein signaling 19)", "TNF reporter robust z-score": 0.17, "Outcome": "inactive"}
{"Target gene": "MAPK1IP1L", "TNF reporter robust z-score": -0.85, "Outcome": "inactive"}
{"Target gene": "MAPK1IP1L", "TNF reporter robust z-score": 0.2, "Outcome": "inactive"}
{"Target gene": "MAPK1IP1L", "TNF reporter robust z-score": 1.01, "Outcome": "inactive"}
{"Target gene": "MAPK1IP1L", "TNF reporter robust z-score": -0.13, "Outcome": "inactive"}
{"Target gene": "PRTG (protogenin)", "TNF reporter robust z-score": 1.26, "Outcome": "inactive"}
{"Target gene": "PRTG (protogenin)", "TNF reporter robust z-score": 0.65, "Outcome": "inactive"}
{"Target gene": "PRTG (protogenin)", "TNF reporter robust z-score": 0.42, "Outcome": "inactive"}
{"Target gene": "PRTG (protogenin)", "TNF reporter robust z-score": 0.59, "Outcome": "inactive"}
{"Target gene": "SMPDL3B (sphingomyelin phosphodiesterase acid like 3B)", "TNF reporter robust z-score": 0.1, "Outcome": "inactive"}
{"Target gene": "SMPDL3B (sphingomyelin phosphodiesterase acid like 3B)", "TNF reporter robust z-score": -0.35, "Outcome": "inactive"}
{"Target gene": "SMPDL3B (sphingomyelin phosphodiesterase acid like 3B)", "TNF reporter robust z-score": -0.37, "Outcome": "inactive"}
{"Target gene": "SMPDL3B (sphingomyelin phosphodiesterase acid like 3B)", "TNF reporter robust z-score": -0.82, "Outcome": "inactive"}
{"Target gene": "LIMD2 (LIM domain containing 2)", "TNF reporter robust z-score": 0.3, "Outcome": "inactive"}
{"Target gene": "LIMD2 (LIM domain containing 2)", "TNF reporter robust z-score": 0.79, "Outcome": "inactive"}
{"Target gene": "LIMD2 (LIM domain containing 2)", "TNF reporter robust z-score": -0.31, "Outcome": "inactive"}
{"Target gene": "RING1 (ring finger protein 1)", "TNF reporter robust z-score": 3.4, "Outcome": "active"}
{"Target gene": "RING1 (ring finger protein 1)", "TNF reporter robust z-score": 1.26, "Outcome": "inactive"}
{"Target gene": "RING1 (ring finger protein 1)", "TNF reporter robust z-score": 0.68, "Outcome": "inactive"}
{"Target gene": "RING1 (ring finger protein 1)", "TNF reporter robust z-score": 2.1, "Outcome": "inactive"}
{"Target gene": "OR2T2 (olfactory receptor family 2 subfamily T member 2)", "TNF reporter robust z-score": -0.1, "Outcome": "inactive"}
{"Target gene": "OR2T2 (olfactory receptor family 2 subfamily T member 2)", "TNF reporter robust z-score": -0.7, "Outcome": "inactive"}
{"Target gene": "OR2T2 (olfactory receptor family 2 subfamily T member 2)", "TNF reporter robust z-score": -0.68, "Outcome": "inactive"}
{"Target gene": "RAB17 (RAB17, member RAS oncogene family)", "TNF reporter robust z-score": -0.87, "Outcome": "inactive"}
{"Target gene": "RAB17 (RAB17, member RAS oncogene family)", "TNF reporter robust z-score": -0.27, "Outcome": "inactive"}
{"Target gene": "RAB17 (RAB17, member RAS oncogene family)", "TNF reporter robust z-score": -0.86, "Outcome": "inactive"}
{"Target gene": "RAB17 (RAB17, member RAS oncogene family)", "TNF reporter robust z-score": -0.36, "Outcome": "inactive"}
{"Target gene": "LSM8 (LSM8 homolog, U6 small nuclear RNA associated)", "TNF reporter robust z-score": 1.11, "Outcome": "inactive"}
{"Target gene": "LSM8 (LSM8 homolog, U6 small nuclear RNA associated)", "TNF reporter robust z-score": 4.6, "Outcome": "active"}
{"Target gene": "LSM8 (LSM8 homolog, U6 small nuclear RNA associated)", "TNF reporter robust z-score": 0.15, "Outcome": "inactive"}
{"Target gene": "LSM8 (LSM8 homolog, U6 small nuclear RNA associated)", "TNF reporter robust z-score": 2.69, "Outcome": "inactive"}
{"Target gene": "CADPS2 (calcium dependent secretion activator 2)", "TNF reporter robust z-score": -0.87, "Outcome": "inactive"}
{"Target gene": "CADPS2 (calcium dependent secretion activator 2)", "TNF reporter robust z-score": -0.59, "Outcome": "inactive"}
{"Target gene": "CADPS2 (calcium dependent secretion activator 2)", "TNF reporter robust z-score": -0.39, "Outcome": "inactive"}
{"Target gene": "CADPS2 (calcium dependent secretion activator 2)", "TNF reporter robust z-score": 0.27, "Outcome": "inactive"}
{"Target gene": "AAR2 (AAR2 splicing factor)", "TNF reporter robust z-score": -0.3, "Outcome": "inactive"}
{"Target gene": "AAR2 (AAR2 splicing factor)", "TNF reporter robust z-score": -0.57, "Outcome": "inactive"}
{"Target gene": "AAR2 (AAR2 splicing factor)", "TNF reporter robust z-score": 0.14, "Outcome": "inactive"}
{"Target gene": "AAR2 (AAR2 splicing factor)", "TNF reporter robust z-score": -0.16, "Outcome": "inactive"}
{"Target gene": "F2RL3 (F2R like thrombin or trypsin receptor 3)", "TNF reporter robust z-score": -0.48, "Outcome": "inactive"}
{"Target gene": "F2RL3 (F2R like thrombin or trypsin receptor 3)", "TNF reporter robust z-score": -0.71, "Outcome": "inactive"}
{"Target gene": "F2RL3 (F2R like thrombin or trypsin receptor 3)", "TNF reporter robust z-score": -0.14, "Outcome": "inactive"}
{"Target gene": "F2RL3 (F2R like thrombin or trypsin receptor 3)", "TNF reporter robust z-score": -0.02, "Outcome": "inactive"}

Targets above whose target name starts with P or p (8):
{"Target gene": "PRKAR1B (protein kinase cAMP-dependent type I regulatory subunit beta)", "TNF reporter robust z-score": 1.38, "Outcome": "inactive"}
{"Target gene": "PRKAR1B (protein kinase cAMP-dependent type I regulatory subunit beta)", "TNF reporter robust z-score": 1.67, "Outcome": "inactive"}
{"Target gene": "PRKAR1B (protein kinase cAMP-dependent type I regulatory subunit beta)", "TNF reporter robust z-score": 1.6, "Outcome": "inactive"}
{"Target gene": "PRKAR1B (protein kinase cAMP-dependent type I regulatory subunit beta)", "TNF reporter robust z-score": 1.55, "Outcome": "inactive"}
{"Target gene": "PRTG (protogenin)", "TNF reporter robust z-score": 1.26, "Outcome": "inactive"}
{"Target gene": "PRTG (protogenin)", "TNF reporter robust z-score": 0.65, "Outcome": "inactive"}
{"Target gene": "PRTG (protogenin)", "TNF reporter robust z-score": 0.42, "Outcome": "inactive"}
{"Target gene": "PRTG (protogenin)", "TNF reporter robust z-score": 0.59, "Outcome": "inactive"}
